The values that follow come from paper PMC8222357, “The structure of ORC–Cdc6 on an origin DNA reveals the mechanism of ORC activation by the replication initiator Cdc6” (Nature Communications, 2021).

The experiment concerns the target T1, Orc2, subunit of S. cerevisiae ORC (S. cerevisiae), P32833.
T1 chain: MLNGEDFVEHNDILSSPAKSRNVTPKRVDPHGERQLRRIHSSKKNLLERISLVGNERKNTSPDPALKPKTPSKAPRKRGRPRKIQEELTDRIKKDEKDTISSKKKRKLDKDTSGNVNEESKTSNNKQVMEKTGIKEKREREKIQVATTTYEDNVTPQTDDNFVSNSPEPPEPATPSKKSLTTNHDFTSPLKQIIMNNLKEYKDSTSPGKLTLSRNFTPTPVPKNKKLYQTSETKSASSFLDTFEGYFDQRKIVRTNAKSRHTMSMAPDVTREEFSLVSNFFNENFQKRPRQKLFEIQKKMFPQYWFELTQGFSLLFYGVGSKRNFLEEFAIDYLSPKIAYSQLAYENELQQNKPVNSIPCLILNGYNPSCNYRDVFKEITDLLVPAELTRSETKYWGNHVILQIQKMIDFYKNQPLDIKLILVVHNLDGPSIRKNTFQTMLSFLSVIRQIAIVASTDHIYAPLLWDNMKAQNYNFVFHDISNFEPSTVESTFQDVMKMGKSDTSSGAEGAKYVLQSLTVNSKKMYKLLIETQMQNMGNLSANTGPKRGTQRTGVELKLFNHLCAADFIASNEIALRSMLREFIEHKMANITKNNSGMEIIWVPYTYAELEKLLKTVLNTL
Nature of the experiment: cryo-EM structure; ORC first bound to 85 bp ARS1 origin dsDNA, then Cdc6 added (about 1 μM ORC:1.25 μM DNA:6.4 μM Cdc6), 5 mM ATPγS, 5 mM DTT, on ice; no cross-linking agent; maps at 3.3 and 3.6 Å; both purified. The note with it: remark: other sources report otherwise.

No constants are given. Whether binding was seen depends on the method and setting. Some results given as binding are weak or reduced against the parent protein; the word gives no strength.

B1: Cdc6 (replication initiator), S. cerevisiae, wild type (natural protein)
chain: MSAIPITPTKRIRRNLFDDAPATPPRPLKRKKLQFTDVTPESSPEKLQFGSQSIFLRTKALLQKSSELVNLNSSDGALPARTAEYEQVMNFLAKAISEHRSDSLYITGPPGTGKTAQLDMIIRQKFQSLPLSLSTPRSKDVLRHTNPNLQNLSWFELPDGRLESVAVTSINCISLGEPSSIFQKIFDSFQDLNGPTLQIKNMQHLQKFLEPYHKKTTFVVVLDEMDRLLHANTSETQSVRTILELFLLAKLPTVSFVLIGMANSLDMKDRFLSRLNLDRGLLPQTIVFQPYTAEQMYEIVIQKMSSLPTIIFQPMAIKFAAKKCAGNTGDLRKLFDVLRGSIEIYELEKRFLLSPTRGSLNSAQVPLTPTTSPVKKSYPEPQGKIGLNYIAKVFSKFVNNNSTRTRIAKLNIQQKLILCTIIQSLKLNSDATIDESFDHYIKAITKTDTLAPLQRNEFLEICTILETCGLVSIKKTKCKGKTKRFVDKIDVDLDMREFYDEMTKISILKPFLH
notes: Cdc6, S. cerevisiae; also called yeast Cdc6; source: purified as described previously, with minor modifications (lysis buffer with 500 mM potassium phosphate)
In the case of B1, the binding entry was “binds”.
